Each structure is given as a SMILES string. The list shows a part of the results.

The test system of the assay is Caenorhabditis elegans N2. The assay can be described thus: aldicarb interaction hit call (worm growth perturbed in combination with 10 uM aldicarb in both replicates, no effect as single agent) (binary (1 = interacts)); higher = interacts with aldicarb (growth perturbed). The conditions noted are these: first compound 1.5 µM; aldicarb concentration 10 µM; 6 days; 20 °C.

Turning to `COC(=O)Nc1ccc(-c2ccccc2)cc1` [wact-120] + CNC(=O)O/N=C/C(C)(C)SC [aldicarb], the “aldicarb interaction hit call” value is inactive: 0.
For the compound `Cl.FC(F)(F)c1cccc(OCCCCn2ccnc2)c1` [wact-155] + CNC(=O)O/N=C/C(C)(C)SC [aldicarb], the “aldicarb interaction hit call” value was inactive: 0.
With `CCn1cc(CN2CCCC(C(=O)c3ccc(-c4ccccc4)c(F)c3)C2)cn1` (stereo not given) [wact-291] + CNC(=O)O/N=C/C(C)(C)SC [aldicarb], the “aldicarb interaction hit call” value was inactive: 0.
As for `COC(=O)c1ccc(CSc2ccc(C)cc2)cc1` [wact-514] + CNC(=O)O/N=C/C(C)(C)SC [aldicarb], the “aldicarb interaction hit call” value was active: 1.
With `CN(CC1CCN(CCc2ccc(Cl)cc2)CC1)C1CCOCC1` [wact-319] + CNC(=O)O/N=C/C(C)(C)SC [aldicarb], the “aldicarb interaction hit call” value is inactive: 0.
For the compound `Nc1nc(Nc2ccc(Cl)cc2)nc(C(F)(F)F)n1` [wact-161] + CNC(=O)O/N=C/C(C)(C)SC [aldicarb], the “aldicarb interaction hit call” value was inactive: 0.
Take `FC(F)(F)c1cc(-c2ccc(Br)cc2)[nH]n1` [wact-500] + CNC(=O)O/N=C/C(C)(C)SC [aldicarb]: the “aldicarb interaction hit call” value is inactive: 0.
Consider `CCOc1ccc(NC(=O)c2cnsn2)cc1` [wact-630] + CNC(=O)O/N=C/C(C)(C)SC [aldicarb], for which the “aldicarb interaction hit call” value is inactive: 0.
Take `O=C(Nc1ccc(I)cc1)c1ccco1` [wact-27] + CNC(=O)O/N=C/C(C)(C)SC [aldicarb]: the “aldicarb interaction hit call” value is inactive: 0.
Consider `CSc1ccc(C(=O)/C=C/c2ccc(N)cc2)cc1` [wact-464] + CNC(=O)O/N=C/C(C)(C)SC [aldicarb], for which the “aldicarb interaction hit call” value was inactive: 0.

For the origin of these results see the supplement of paper PMC5393889.
